Reference: publication PMC12095075
No constants are given. Whether binding was seen depends on the method and setting. In cells and extracts the contact can be indirect. Some binding calls cover weakened binding; strength is not graded here.

Chains of the proteins cited; added tags and fusions are not shown. Lines headed by an entry give the natural chain unless they say otherwise; changes in a name come on top. A line that says so, or that is headed by a name, gives the form on record, which may keep a tag or linker.
BMAL1–Flag (pcDNA3-mBmal1) (Q9WTL8, form named): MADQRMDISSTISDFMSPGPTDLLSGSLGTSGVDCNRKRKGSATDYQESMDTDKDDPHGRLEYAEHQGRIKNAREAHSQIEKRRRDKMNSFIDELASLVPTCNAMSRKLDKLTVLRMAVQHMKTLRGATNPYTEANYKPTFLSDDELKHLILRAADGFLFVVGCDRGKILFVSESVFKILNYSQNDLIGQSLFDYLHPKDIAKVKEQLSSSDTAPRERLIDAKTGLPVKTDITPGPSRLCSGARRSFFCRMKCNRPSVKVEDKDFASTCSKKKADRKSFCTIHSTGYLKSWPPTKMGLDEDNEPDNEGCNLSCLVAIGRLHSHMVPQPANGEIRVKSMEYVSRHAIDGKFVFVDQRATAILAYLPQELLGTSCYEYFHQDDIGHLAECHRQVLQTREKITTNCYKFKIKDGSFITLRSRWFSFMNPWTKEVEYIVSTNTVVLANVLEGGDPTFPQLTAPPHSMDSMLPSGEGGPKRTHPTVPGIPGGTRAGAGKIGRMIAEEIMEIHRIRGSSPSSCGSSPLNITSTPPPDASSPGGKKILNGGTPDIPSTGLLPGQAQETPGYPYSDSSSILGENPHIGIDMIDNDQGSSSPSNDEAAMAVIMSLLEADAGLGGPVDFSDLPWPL

Biological target: BMAL1–Flag (pcDNA3-mBmal1) (mouse) (UniProt Q9WTL8)
Assay: co-IP; HEK293 cells overexpressing BMAL1-Flag (pcDNA3-mBmal1), normoxia or hypoxia (1% O2, 4 h); cytoplasmic and nuclear fractions; IP with anti-Flag (reciprocal IP with anti-HIF2A in Extended Data Fig. 2b); western blot

B1: CLOCK, endogenous in HEK293 cells (protein, UniProt O15516 1-846)
chain: MLFTVSCSKMSSIVDRDDSSIFDGLVEEDDKDKAKRVSRNKSEKKRRDQFNVLIKELGSMLPGNARKMDKSTVLQKSIDFLRKHKEITAQSDASEIRQDWKPTFLSNEEFTQLMLEALDGFFLAIMTDGSIIYVSESVTSLLEHLPSDLVDQSIFNFIPEGEHSEVYKILSTHLLESDSLTPEYLKSKNQLEFCCHMLRGTIDPKEPSTYEYVKFIGNFKSLNSVSSSAHNGFEGTIQRTHRPSYEDRVCFVATVRLATPQFIKEMCTVEEPNEEFTSRHSLEWKFLFLDHRAPPIIGYLPFEVLGTSGYDYYHVDDLENLAKCHEHLMQYGKGKSCYYRFLTKGQQWIWLQTHYYITYHQWNSRPEFIVCTHTVVSYAEVRAERRRELGIEESLPETAADKSQDSGSDNRINTVSLKEALERFDHSPTPSASSRSSRKSSHTAVSDPSSTPTKIPTDTSTPPRQHLPAHEKMVQRRSSFSSQSINSQSVGSSLTQPVMSQATNLPIPQGMSQFQFSAQLGAMQHLKDQLEQRTRMIEANIHRQQEELRKIQEQLQMVHGQGLQMFLQQSNPGLNFGSVQLSSGNSSNIQQLAPINMQGQVVPTNQIQSGMNTGHIGTTQHMIQQQTLQSTSTQSQQNVLSGHSQQTSLPSQTQSTLTAPLYNTMVISQPAAGSMVQIPSSMPQNSTQSAAVTTFTQDRQIRFSQGQQLVTKLVTAPVACGAVMVPSTMLMGQVVTAYPTFATQQQQSQTLSVTQQQQQQSSQEQQLTSVQQPSQAQLTQPPQQFLQTSRLLHGNPSTQLILSAAFPLQQSTFPQSHHQQHQSQQQQQLSRHRTDSLPDPSKVQPQ
binding: binds
